Results from article PMC7170874.
Results are given in words; binding and its absence hold for the method and conditions named. In cells and extracts the contact can be indirect. Some binding calls cover weakened binding; strength is not graded here.

By UniProt entry, the sequences of proteins in these tests, tags left out.
UniProt Q07813: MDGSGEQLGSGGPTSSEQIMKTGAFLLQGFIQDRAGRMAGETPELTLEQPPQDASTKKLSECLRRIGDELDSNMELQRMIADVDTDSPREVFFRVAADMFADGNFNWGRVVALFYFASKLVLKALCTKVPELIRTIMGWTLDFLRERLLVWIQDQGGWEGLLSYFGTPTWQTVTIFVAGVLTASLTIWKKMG
UniProt Q8K1M6: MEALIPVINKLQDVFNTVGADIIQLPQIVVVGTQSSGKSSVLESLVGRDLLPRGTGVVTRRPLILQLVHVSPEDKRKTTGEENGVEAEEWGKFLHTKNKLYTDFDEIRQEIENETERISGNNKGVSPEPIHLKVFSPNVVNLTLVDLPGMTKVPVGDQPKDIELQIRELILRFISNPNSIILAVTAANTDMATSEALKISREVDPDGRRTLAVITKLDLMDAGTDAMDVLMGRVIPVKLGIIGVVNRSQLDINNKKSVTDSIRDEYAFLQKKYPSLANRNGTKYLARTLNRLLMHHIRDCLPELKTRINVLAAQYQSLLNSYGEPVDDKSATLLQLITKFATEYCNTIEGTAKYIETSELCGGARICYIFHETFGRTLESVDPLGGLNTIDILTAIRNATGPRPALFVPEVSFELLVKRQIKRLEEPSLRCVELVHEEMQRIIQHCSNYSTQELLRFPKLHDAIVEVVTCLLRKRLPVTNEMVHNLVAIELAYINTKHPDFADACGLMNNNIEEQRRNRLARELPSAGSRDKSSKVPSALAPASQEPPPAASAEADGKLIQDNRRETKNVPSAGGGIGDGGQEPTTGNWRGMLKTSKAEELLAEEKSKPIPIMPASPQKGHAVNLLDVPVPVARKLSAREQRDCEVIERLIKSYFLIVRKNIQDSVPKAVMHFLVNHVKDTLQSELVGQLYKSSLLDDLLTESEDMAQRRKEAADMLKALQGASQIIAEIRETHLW

What was measured:
[1] = target: BAX (mouse (endogenous in superior mesenteric artery tissue)) (UniProt Q07813); test: co-IP; BAX antibody on Protein A/G magnetic beads; mitochondrial fraction of vascular tissue of WT or Drp1 KO mice after 4 h ischemia; Drp1 detected by blot
[2] = target: BAX (mouse (endogenous in superior mesenteric artery tissue)) (UniProt Q07813); test: co-IP; BAX antibody on Protein A/G magnetic beads; cytoplasmic fraction of vascular tissue of WT or Drp1 KO mice after 4 h ischemia; Drp1 detected by blot

Substance: dynamin-related protein 1 (Drp1) (from UniProt Q8K1M6 1-736)
- binding [1]: binds
- binding [2]: no binding (condition: in the cytoplasmic fraction)
